This is one part of the list. Shown are side measurements of this screen, not its main read-out; they come without a call. Compounds called inactive in the main read-out are mostly missing here. Words in brackets tell the shape of the fitted curve; partial curves, single points and poor fits give uncertain potencies.
Assay: qHTS Assay to Find Inhibitors of Chronic Active B-Cell Receptor Signaling
Conditions: ABC-DLBCL IkBa-CBG/CBR reporter, luminescence ratio (green luciferase fused to IkBa over red control in TMD8 lymphoma cells), 4 h
In short: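 Cell line TMD8 (human ABC DLBCL), stably expressing tet-inducible CBG68-IkBa fusion and CBR; IMDM/0.5% FBS; cpd up to 46 uM; dox induction, 4 h, 37C/5% CO2; dual luminescence; green/red ratio; MG132 control.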

[1] = measured here: CBR red luminescence, cell number
[2] = measured here: IkBa-CBG green luminescence

SMILES | AC50 [1] | AC50 [2]
O=C(COc1ccccc1)NC(=S)Nc1cccc([N+](=O)[O-])c1 | 7.31 µM [falling, partial curve] | 
CC1=Nc2cc(C(=O)NCC3CCCO3)ccc2Sc2ccc(Br)cc21 (stereo not drawn) | 35.5 µM [falling, single point] | 
O=C(NCCNS(=O)(=O)c1ccccc1Cl)c1cc(OCC(F)(F)F)ccc1OCC(F)(F)F | 7.08 µM [rising, full curve] | 
CC(=O)Nc1cc(OC(C)=O)c2nonc2c1OC(C)=O | 5.62 µM [falling, full curve, poor fit] | 
CNC(=O)CC1C(=O)N(C)C(=S)N1NC(=O)c1ccc(Cl)cc1 (stereo not drawn) | 6.51 µM [rising, partial curve, poor fit] | 
O=C(COc1ccccc1Cl)Nc1ccc(NC(=O)c2ccco2)cc1 | 14.1 µM [rising, single point] | 
COC(=O)COc1ccc(NC(=O)Cn2nc(-c3ccccc3)c3ccccc3c2=O)cc1 | 3.16 µM [falling, single point] | 
CCOC(=O)C(C)Oc1cccc2c(=O)n(CC(=O)NCc3ccccc3)ccc12 (stereo not drawn) | 6.31 µM [rising, partial curve, poor fit] | 2.82 µM [falling, full curve]
O=C(N/N=C/c1ccco1)Nc1ccccc1 | 9.2 µM [falling, partial curve] | 
Cc1cc2c(N=O)c(NO)ccc2[nH]1 | 0.146 µM [falling, full curve, poor fit] | 
CCOc1ccc(Nc2oc(-c3ccc(Cl)cc3)nc2C#N)cc1 | 14.1 µM [falling, single point] | 
Cc1noc(C)c1-c1csc(N2CCC(C(N)=O)CC2)n1 | 10.3 µM [rising, partial curve, poor fit] | 
Cc1nc2cc(NC(=O)CCS(=O)(=O)c3ccccc3)ccc2s1 | 0.58 µM [rising, full curve] | 
CC(=O)c1cnc2nc(SCc3ccccc3)nn2c1C | 11.2 µM [rising, partial curve] | 
CCSc1nc2c(cnn2-c2ccc(C)c(C)c2)c(=O)[nH]1 | 2.31 µM [rising, partial curve, poor fit] | 
CSc1nc(N(C)NC(=O)c2cccc(C)c2)c2ccccc2n1 | 1.78 µM [rising, full curve] | 0.794 µM [falling, full curve]
CN1CCN(C(=S)NC(=O)/C=C/c2ccccc2Cl)CC1 | 6.31 µM [rising, single point] | 
Cc1cc(=O)oc(C)c1C(=O)NC1CC(C)(C)NC(C)(C)C1 | 1.03 µM [rising, full curve, poor fit] | 
N/C(=N\OC(=O)COc1ccc(Br)cc1)c1cccnc1 | 0.731 µM [rising, full curve, poor fit] | 
CCOC(=O)Nc1ccc2ncn(C)c(=O)c2c1 | 29.1 µM [falling, single point] | 
COc1ccc(NC(=O)CSc2nnc(-c3ccccc3Cl)n2Cc2ccco2)c(OC)c1 | 5.62 µM [falling, full curve, poor fit] | 

SMILES | AC50 [1] | AC50 [2]
CC1=CC(C)(C)N(S(=O)(=O)c2ccc(F)cc2)c2ccccc21 |  | 29.1 µM [falling, single point]
CC(Sc1nc(=O)cc(N)n1CCc1ccccc1)C(=O)Nc1ccc(Cl)cc1 (stereo not drawn) | 11.2 µM [falling, partial curve, poor fit] | 12.6 µM [rising, partial curve, poor fit]
O=C(O)CC(NC(=S)NCc1ccccc1)C(=O)O (stereo not drawn) | 2.31 µM [falling, full curve, poor fit] | 
Cc1ccc(NC(=O)CSCC(=O)Nc2ncc3c(n2)CC(c2ccco2)CC3=O)cc1 (stereo not drawn) | 0.731 µM [falling, partial curve, poor fit] | 
CC1CC(C)CN(C(=O)Nc2ccc(Br)cc2)C1 (stereo not drawn) | 7.94 µM [rising, partial curve, poor fit] | 
CCc1noc(C)c1C(=O)Nc1nc(-c2cccs2)cs1 | 0.326 µM [rising, full curve, poor fit] | 
Cc1ccc(N=Nc2ccc(C)cc2NC(=O)Nc2ccccc2F)cc1 | 25.1 µM [falling, single point] | 
CC(=O)c1cccc(OCc2cc(C(=O)N3CCC(N4CCCCC4)CC3)no2)c1 | 10 µM [rising, partial curve] | 
Cc1noc(C)c1COc1cccc(C(=O)Nc2ccc(Br)cc2F)c1 |  | 8.2 µM [falling, single point]
O=C(Nc1ccncc1)Nc1cccc(C(F)(F)F)c1 | 3.16 µM [rising, full curve, poor fit] | 
Nc1nc(Nc2ccccc2)nc(N2CCCC2)c1[N+](=O)[O-] | 20 µM [rising, single point] | 
COc1cccc(C(=O)NC2=NCCS2)c1OC | 0.231 µM [rising, full curve, poor fit] | 
COc1cccc(Cn2cc(/C=N/NC(=O)c3cc(O)cc(O)c3)c3ccccc32)c1 | 12.6 µM [falling, partial curve] | 
CCCCC(=O)OCC(=O)c1[nH]c(C)c(C(=O)OCC)c1C | 0.13 µM [falling, full curve, poor fit] | 
Cc1ccc(NS(=O)(=O)c2ccc(CCC(=O)N3CCOCC3)cc2)cc1 | 29.1 µM [rising, single point] | 
CN(C)C(=O)N1CCC(C(=O)N2CCCC(C(=O)c3cccc4ccccc34)C2)CC1 (stereo not drawn) | 3.55 µM [rising, single point] | 
O=C1CC[C@@H](CN(Cc2ccccc2)Cc2cn[nH]c2-c2cc3ccccc3o2)N1 | 12.6 µM [falling, partial curve] | 22.4 µM [rising, single point]
CCCNC(=O)c1ccc(N2CCC3(CC2)CC(c2cccc(Br)c2)=NO3)c(NC(=O)c2ccc(Br)cc2)c1 | 0.651 µM [rising, partial curve, poor fit] | 
O=C(Nc1cc(Cl)cc(Cl)c1)c1ccc(F)c(S(=O)(=O)N2CCc3ccccc32)c1 | 5.62 µM [falling, single point] | 
CC(CC(=O)N1CCc2ccccc21)c1ccccc1 (stereo not drawn) | 6.51 µM [rising, single point] | 
O=C(Cc1ccccc1)N(Cc1cccnc1)c1nc2c(F)cc(F)cc2s1 |  | 11.2 µM [rising, partial curve, poor fit]

Random excerpt: 4 compounds from above.
SMILES | AC50 [1] | AC50 [2]
Cc1noc(C)c1-c1csc(N2CCC(C(N)=O)CC2)n1 | 10.3 µM [rising, partial curve, poor fit] | 
Cc1nc2cc(NC(=O)CCS(=O)(=O)c3ccccc3)ccc2s1 | 0.58 µM [rising, full curve] | 
CC1=CC(C)(C)N(S(=O)(=O)c2ccc(F)cc2)c2ccccc21 |  | 29.1 µM [falling, single point]
O=C(N/N=C/c1ccco1)Nc1ccccc1 | 9.2 µM [falling, partial curve] | 

Next structures.

SMILES | AC50 [1] | AC50 [2]
CN(/N=C/c1cc([N+](=O)[O-])ccc1O)c1ccccc1 | 2.06 µM [rising, partial curve] | 
COc1ccc(CNC(=O)/C(C#N)=C/c2cccc(OC)c2OC)cc1 |  | 7.08 µM [falling, full curve]
O=C(Cn1c2ccccc2c2nc3n(c(=O)c21)CCS3)Nc1ccccc1 | 1.78 µM [rising, full curve, poor fit] | 
O=C(Nc1ccc(S(=O)(=O)N2CCc3ccccc32)cc1)c1ccc2c(c1)OCO2 | 14.6 µM [falling, partial curve, poor fit] | 25.9 µM [rising, partial curve, poor fit]
COc1ccc(Cl)cc1NC(=O)CC1CCCC1 | 14.1 µM [rising, partial curve, poor fit] | 
Cc1ccc(OCCSc2nc(NC(C)C)nc(NC(C)C)n2)cc1 | 2.06 µM [falling, partial curve, poor fit] | 
C=CCn1c(NC(=O)c2ccc(C)cc2)c(C#N)sc1=N | 3.55 µM [rising, partial curve, poor fit] | 
CCOC(=O)[C@H]1[C@H]2COc3ccc(C)cc3[C@@H]2N2C(=O)c3cc(Cl)ccc3NC(=O)[C@@]12C | 29.1 µM [falling, single point] | 
CC(=O)c1ccc(N2CCN(c3ccc(NC(=O)c4ccc(F)cc4)cc3C(=O)O)CC2)cc1 | 35.5 µM [falling, single point] | 
COc1ccc(CC(=O)NCCC2=CCCCC2)cc1 | 5.01 µM [rising, partial curve, poor fit] | 
Cc1cc(C)n(CCOc2ccc(Br)cc2)n1 | 17.8 µM [rising, single point] | 
CCC(C)N1C(=O)S/C(=C/c2ccc(Sc3nc4ccccc4[nH]3)o2)C1=O (stereo not drawn) | 22.4 µM [falling, single point] | 
CC1(C)Cc2c(cnn2-c2ccccc2)C(=O)/C1=N\NC(=O)c1ccccc1 | 1.64 µM [rising, partial curve, poor fit] | 
COc1cccc(CNCC(O)COc2ccc(C(=O)c3ccccc3)cc2)c1 (stereo not drawn) | 35.5 µM [falling, single point] | 
Cc1ccc(/C=N/c2sc3c(c2C#N)CCCCC3)o1 | 35.5 µM [falling, single point] | 
O=C1c2ccccc2C(O)N1Cc1ccccc1Cl (stereo not drawn) | 29.1 µM [falling, single point] | 
COc1ccccc1CN1CCNC(=O)C1CC(=O)NCCCn1cccn1 (stereo not drawn) | 28.2 µM [rising, partial curve, poor fit] | 
COc1ccc(OC)c(S(=O)(=O)NCC(=O)NC2CCCc3ccccc32)c1 (stereo not drawn) | 2.91 µM [rising, partial curve, poor fit] | 
O=C(NC1CCCCCC1)c1cccnc1Sc1ccc(Cl)cc1 | 1.03 µM [rising, full curve] | 
Cc1cccc(NC(=O)CNC(=O)c2ccccc2Cl)n1 | 14.1 µM [falling, partial curve] | 
COC(=O)C(C(=O)OC)N1C(=O)CCC1=O | 0.651 µM [falling, full curve, poor fit] | 

Source: PubChem BioAssay AID493014 (National Center for Advancing Translational Sciences (NCATS), 2011)
